{"source": "patent US12076419B2", "about": "“Lipin-1 as a novel therapy target of muscular dystrophy” (Wright State University, priority 2019, dated 2024)", "test_system": "lipin1", "assay": "Western blot of lipin1 protein expression in differentiated C2C12 myotubes", "type": "cell-based", "conditions": "10 μM, 0, 6 h, 12 h, 24 h and 48 h", "note": "For at least one compound, name, drawing or mass did not settle the structure."}
{"molecule": "CN(CCOc1ccc(CC2SC(=O)NC2=O)cc1)c1ccccn1", "note": "(stereo not shown) [rosiglitazone]", "values": [{"measurement": "lipin1 protein expression levels", "result": "upregulated"}]}
